{"source": "PubChem BioAssay AID602313", "about": "(National Center for Advancing Translational Sciences (NCATS), 2012)", "note": "Among all 390,000 compounds or so, about 760 (0.19%) were called active. Inconclusive means that the source gave no clear call. Such entries were picked first, then a sample of the others. The call rests on the fitted dose curve; in most records, active means well fitted inhibition curve with a large enough effect; inconclusive means small, poorly fitted or top-dose-only effect; inactive means flat fitted curve, though single readings scatter. Where the call is inconclusive, the potency comes from a doubtful curve fit. Potency means the concentration at half of the fitted maximal effect.", "data": [{"test": "qHTS for Inhibitors of Vif-A3F Interactions: qHTS; further: nearly all actives have a fitted effect of over 65% in size; on activity, negative = active: % of control where 0% means no effect", "conditions": "HeLa A3F-eYFP + Vif (tagged APOBEC3F with the HIV-1 protein that degrades it), YFP fluorescence increase; series mostly up to 46.1 µM; activity, negative = active: at the top concentration", "in_short": "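HeLa cells stably expressing A3F-eYFP plus Vif, plated and incubated overnight at 37 deg C, then exposed to compounds overnight at 37 deg C. Blocked degradation read as raised yellow fluorescence (Ex 488/Em 500-530).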", "values": [{"smiles": "CC(C)(C)CNC(=O)c1cccc2c1C(=O)c1ccc(N3CCCC3)cc1S2(=O)=O", "Potency": "inconclusive: 35.5 µM [inhibitor, single point]"}, {"smiles": "C=CCOc1c(Br)cc(CNc2ccc(NC(=O)C(C)C)cc2)cc1OCC", "Potency": "inconclusive: 35.5 µM [inhibitor, partial curve, poor fit]"}, {"smiles": "O=C(NCc1cc(C(F)(F)F)ccc1Cl)c1cccc2c1C(=O)c1ccc(N3CCOCC3)cc1S2(=O)=O", "Potency": "active: 10 µM"}, {"smiles": "Nc1nc(-c2ccccc2)c(-c2ccccc2)n1N", "Potency": "inconclusive: 28.2 µM [inhibitor, single point]"}, {"smiles": "Cc1cccc(NC(=O)CNC(=O)COC(=O)C2CC2C)c1C", "note": "(stereo not given)", "Potency": "inconclusive: 2.24 µM [inhibitor, full curve]"}, {"smiles": "COc1ccccc1NC(=O)CSc1oc(-c2ccco2)nc1S(=O)(=O)c1ccc(Br)cc1", "activity, negative = active": "inactive: 2.73%"}, {"smiles": "Clc1ccc(C2=C3CCCCn4c(-c5ccccc5)c[n+](c43)C2)cc1", "activity, negative = active": "inactive: -8.23%"}, {"smiles": "Cn1ccnc1Sc1nc2ccccc2nc1NS(=O)(=O)c1ccccc1", "Potency": "active: 25.1 µM"}, {"smiles": "CCN(CC(=O)Nc1ccc2c(c1)OCCO2)S(=O)(=O)c1ccc(F)cc1", "Potency": "inconclusive: 25.1 µM [inhibitor, single point]"}, {"smiles": "COc1ccccc1Nc1nc2ccc(C)cc2n2cnnc12", "Potency": "inconclusive: 22.4 µM [inhibitor, single point]"}, {"smiles": "O=[N+]([O-])c1ccccc1N/N=C\\c1ccccc1F", "Potency": "inconclusive: 35.5 µM [inhibitor, single point]"}, {"smiles": "CCOC(=O)c1cc(-c2ccc(C)cc2)n(CC(=O)Nc2ccc(OC)c(Cl)c2)c1C", "Potency": "inconclusive: 17.8 µM [inhibitor, single point]"}, {"smiles": "COc1cccc(/C=N/NC(=S)NCCc2ccccc2)c1", "Potency": "inconclusive: 8.91 µM [inhibitor, partial curve, poor fit]"}, {"smiles": "N=c1sccn1CC(=O)Nc1ccccc1Cc1ccccc1", "activity, negative = active": "inactive: -2.4%"}, {"smiles": "Cc1cc(C(=O)Nc2ccc3c(c2)OCCO3)ccc1[N+](=O)[O-]", "Potency": "inconclusive: 7.08 µM [inhibitor, partial curve, poor fit]"}, {"smiles": "CCC(C)NC(=O)c1ccccc1NC(=O)C1CCN(S(=O)(=O)Cc2ccccc2)CC1", "note": "(stereo not given)", "activity, negative = active": "inactive: 2.89%"}, {"smiles": "CCC(C)NCCCOc1ccc(Cl)cc1C(C)(C)C", "note": "(stereo not given)", "activity, negative = active": "inactive: -19.2%"}, {"smiles": "Cc1nc2ccccc2c(=O)n1/N=C/c1ccc(C(C)C)cc1", "Potency": "inconclusive: 35.5 µM [inhibitor, partial curve, poor fit]"}, {"smiles": "Clc1ccc2c(c1)C(C1=NCCN1)c1ccccc1CS2", "note": "(stereo not given)", "activity, negative = active": "inactive: -15.5%"}, {"smiles": "Cc1nn(C)c(C(=O)NC(=S)Nc2ccc([N+](=O)[O-])cc2)c1Cl", "Potency": "inconclusive: 35.5 µM [inhibitor, single point]"}]}]}
